Experimental data reported in PubChem BioAssay AID720591 (Broad Institute, 2013).
In all, about 1,200 compounds went through this assay and about 60 (5%) were called active. Inconclusive results (about 1%) are left out.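 How the source made its calls: active means Decreasing signal and fitted IC50 at most twice the top valid tested dose; inconclusive means Bad fit or a level curve showing 30 to 70% inhibition; inactive means the rest.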 The list shows a part of the results. Potency and affinity values are given separately.

Amino acid sequences for entries named in this document (tags omitted). A change or cut given only in a name is not applied to a line headed by its entry.
UniProt Q9NXA8: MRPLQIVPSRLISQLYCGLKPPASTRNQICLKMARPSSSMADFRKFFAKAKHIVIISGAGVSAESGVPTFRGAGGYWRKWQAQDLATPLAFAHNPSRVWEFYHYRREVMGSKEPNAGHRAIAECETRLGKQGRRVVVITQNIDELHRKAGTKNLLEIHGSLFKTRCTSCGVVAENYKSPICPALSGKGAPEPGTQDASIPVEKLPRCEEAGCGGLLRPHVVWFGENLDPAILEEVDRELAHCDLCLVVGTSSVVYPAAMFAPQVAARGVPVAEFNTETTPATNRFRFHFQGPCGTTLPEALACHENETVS

The molecules below were run against NAD-dependent protein deacylase sirtuin-5, mitochondrial (Homo sapiens) (UniProt Q9NXA8) (assay: sirtuin-5 deacylation blockers, concentration series – biochemical, fluorescence imaging, cherry-pick, set 5, dose response (AID 720591;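 further: 0% = median of neutral control wells and -100% = median of positive control wells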)). Settings: Purified SirT5, succinyl-peptide AMC, trypsin-coupled fluorescence; at 15 µM (top of the series) unless noted.

Activity change, negative = inhibition, inactive:
O=S(=O)(c1ccc(F)cc1)c1nc(-c2ccco2)oc1Nc1ccccc1 23.7%
CCCN(CCC)CCN1CCN(C(=O)[C@H](CCc2ccccc2)NC(=O)[C@H]2O[C@@H](n3cnc4c(N)ncnc43)[C@H](O)[C@@H]2O)CC1 17.5%
CCOC(=O)C(C)OC(=O)C1=C(C)NC(=O)NC1c1ccc2c(c1)OCO2 (stereo not drawn) -3.09%
COc1ccccc1NC(=O)N1CCN(c2cccc(C(F)(F)F)c2)CC1 11.1%
Cc1cn(CC(=O)NCc2ccccc2)c(=O)[nH]c1=O 22.2%
COc1ccc(S(=O)(=O)Nc2ccc3c(c2)C(=O)N([C@@H](C)CO)C[C@H](C)[C@H](CN(C)CC2CC2)O3)cc1 0.708%
COc1ccc(-n2nnnc2SCC(=O)c2ccc3c(c2)OCCO3)c(OC)c1 8.7%
Cc1nc(N)sc1-c1csc(Nc2cccc(C(=O)O)c2)n1 -26%
COc1cc(C(=O)N2CCNCC2)cc(OC)c1OC -4.5%
Cc1ccccc1C(=O)N1CCN(c2ccc(NC(=O)c3ccccc3[N+](=O)[O-])cc2)CC1 -26.4%
Cc1ccc(NC(=O)C2CCN(C(=O)c3ccco3)CC2)cc1C -16.9%
CC(C)CCCCCCCCc1cccc(O)c1C(=O)O 2.57% [at 7.5 µM]
CC(C)CN1C(=O)C(NC(=O)C2CC2)(C(F)(F)F)C2=C1CC(C)(C)CC2=O (stereo not drawn) -23.5%
C=C(C)Cn1c(N2CCN(c3ccc(OC)cc3)CC2)nc2c1c(=O)n(C)c(=O)n2C -9.42%
O=S(=O)(c1ccccc1)c1nc(-c2ccco2)oc1Nc1ccccc1 14.9%
CC(C)(C)c1ccc(C(=O)N2[C@H](COCc3ccccc3)C=CS2(=O)=O)cc1 7.89%
CCOc1cc(C(=O)NC(CC(=O)O)c2ccc(OC3CCCC3)cc2)cc(OCC)c1OCC (stereo not drawn) -27.9%
CC(C)[C@H](NC(=O)N1CCn2c1nc1ccccc12)C(=O)NCc1ccc2c(c1)OCO2 -4.97%
Nc1nccc(-c2ccc(-n3cnc4ccccc43)cc2)n1 4.96%
CC(C)(C)c1n[nH]c2c1CCCC2 12%
O=C(NC1CCCCC1)C(c1ccco1)N(C(=O)c1csnn1)c1cccc(F)c1 (stereo not drawn) -7.73%
O=C(COc1ccccc1Cl)Nc1ccc(CN2CCCCC2)cc1 4.25%
CC(C)NC(=O)NNC(=O)c1nn(-c2ccc(F)cc2)ccc1=O 10.1%
COc1ccccc1CNc1nc2cc(-c3ccc(OC)c(OC)c3)sc2c(=O)n1C -2.27%
CC1=C(C(=O)N(C(C)C)C(C)C)CC(CC(=O)NC2CCCCC2)C(=O)N1CCCN1CCCC1=O (stereo not drawn) -26.2%
CCc1nc2ccccc2c(C(=O)OCC(=O)NCCCN2CCCC2=O)c1C 9.51%
COc1cc(OC)cc(C(=O)N2CCC(N3CCN(c4ccccc4OC)CC3)CC2)c1 -13.9%
Cc1oc2c(C)c3oc(=O)c(CCC(=O)O)c(C)c3cc2c1-c1ccccc1 -26.2%
CCCS(=O)(=O)NC(=O)C1(C)CCN(C(=O)c2cccs2)C1 (stereo not drawn) 16.8%
Cc1ccc(Cc2c(-c3ccc(Br)cc3)nc3cc(C)ccn23)cc1 -0.483%
COc1cccc(CNC(=O)[C@@H]2CCCN2)c1 -1.14%
CCn1c(=O)cc(OCC(=O)NCCc2ccc(OC)c(OC)c2)c2ccccc21 0.771%
COc1ccc(C(=O)OCC(=O)c2ccc(C)c(S(=O)(=O)N3CCOCC3)c2)cc1OC 14.9%
COc1cc2c(cc1OC)C(C)N(C(=O)c1ccc(C)o1)CC2 (stereo not drawn) -22.7%
CCN1C(=O)[C@H]2[C@@H](c3ccccc3)N[C@]3(CCCN(Cc4ccccc4)C3=O)[C@H]2C1=O -23.8%
COc1cc(C(C)=O)ccc1OC(=O)CN1C(=O)c2ccccc2C1=O 11.6%
Cc1cc(NC(=O)CCC(=O)N(CCc2ccccc2)C(C(=O)NC2CCCC2)c2ccco2)no1 (stereo not drawn) -7.32%
O=C(Nc1ncccc1Cl)c1cc2ccccc2o1 12.1%
c1ccc(CCc2nc(-c3ccc(-n4cccc4)cc3)no2)cc1 16.5%
CN(Cc1nc(-c2ccccc2)no1)C(=O)c1ccco1 -0.677%
O=C(Nc1ccc2c(c1)OCCO2)C(c1ccnc2ccccc12)N1CCN(c2ccc(F)cc2)CC1 (stereo not drawn) 18.7%
Cc1ccc(S(=O)(=O)N2C[C@@H]3CCCC[C@@H]3[C@@H](C)[C@H]2c2cn(Cc3ccccc3)c3ncccc23)cc1 14.3%
CC(C)N(C(=O)COC(=O)[C@H](C)NC(=O)c1ccco1)c1ccccc1 -30%
CC[C@@]12C(=O)N(c3ccc(C)cc3)C(=O)N1[C@H](c1ccc(OC)cc1)[C@@H]1C(=O)N(C(C)(C)C)C(=O)[C@@H]12 8.79%
CSc1ccccc1C(=O)N1CCCCC1 17.3%
C[C@H](CO)N1C[C@H](C)[C@@H](CN(C)C(=O)Nc2ccc3c(c2)OCO3)Oc2c(NC(=O)C3CC3)cccc2C1=O 19.7% [at 7.5 µM]
Cc1ccc(OCCSc2nc3ccccc3n2CCC(=O)O)cc1 -29.2%
Cc1ccc(C(=O)COC(=O)c2ccc3c(c2)C(=O)N(c2cccc4ncccc24)C3=O)cc1 5.95%
O=C(Nc1ccnn1C1CCN(Cc2ccc(OC(F)F)cc2)CC1)C1CCCC1 9.11%
CC(C)(C)NC(=O)C(c1ccc(F)cc1)N(Cc1ccco1)C(=O)CCC(=O)Nc1ccccn1 (stereo not drawn) -15.6%
COc1ccc2cc(C)c(SCC(=O)Nc3cc(C)on3)nc2c1 -7.14%
O=C(COC(=O)CC1CC2CCC1C2)Nc1ccc(F)cc1 (stereo not drawn) 6.05%
COc1ccc(NC(=O)N(C)C[C@H]2Oc3c(NC(=O)c4nc5ccccc5s4)cccc3C(=O)N([C@@H](C)CO)C[C@H]2C)cc1 -16.6%

2 records picked at random from the list so far:
Activity change, negative = inhibition, inactive:
Cc1ccc(C(=O)COC(=O)c2ccc3c(c2)C(=O)N(c2cccc4ncccc24)C3=O)cc1 5.95%
Cc1ccccc1C(=O)N1CCN(c2ccc(NC(=O)c3ccccc3[N+](=O)[O-])cc2)CC1 -26.4%
